# Results as given in the supplement of paper PMC8728848.
# The list shows a part of the results.
# B1: CBP21 (Serratia marcescens), O83009 (protein)
# chain: MNKTSRTLLSLGLLSAAMFGVSQQANAHGYVESPASRAYQCKLQLNTQCGSVQAEPQSVEGLKGFPQAGPADGHIASADKSTFFELDQQTPTRWNKLNLKTGPNSFTWKLTARHSTTSWRYFITKPNWDASQPLTRASFDLTPFCQFNDGGAIPAAQVTHQCNIPADRSGSHVILAVWDIADTANAFYQAIDVNLSK
# Assays:
# Experiment in all cases: glycan array binding signal (z-score within array); higher = stronger binding
# Conditions in all cases: glycan notation: IUPAC condensed, linker removed; mutation: Y54A
# [1] = biological target: Fuc(a1-2)[GalNAc(a1-3)]Gal(b1-3)GlcNAc(b1-3)GalNAc
# How it was run: (§1)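 Glycan array data were curated from 3228 arrays in the Consortium for Functional Glycomics database and kept only where the protein sequence was available. Glycan names were converted to IUPAC-condensed notation, and columns mapping to the same glycan were averaged. The binding signal is a within-array Z-score, averaged across arrays of the same protein sequence at different concentrations or buffers and across linkers. Negative Z-scores can be read as non-binding.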
# [2] = biological target: Fuc(a1-2)[GalNAc(a1-3)]Gal(b1-3)GlcNAc(b1-6)GalNAc
# How it was run: as §1
# [3] = biological target: Fuc(a1-2)[GalNAc(a1-3)]Gal(b1-4)Glc
# How it was run: as §1
# [4] = biological target: Fuc(a1-2)[GalNAc(a1-3)]Gal(b1-4)GlcNAc
# How it was run: as §1
# [5] = biological target: Fuc(a1-2)[GalNAc(a1-3)]Gal(b1-4)GlcNAc(b1-2)Man
# How it was run: as §1
# [6] = biological target: Fuc(a1-2)[GalNAc(a1-3)]Gal(b1-4)GlcNAc(b1-2)Man(a1-3)[Fuc(a1-2)[GalNAc(a1-3)]Gal(b1-4)GlcNAc(b1-2)Man(a1-6)]Man(b1-4)GlcNAc(b1-4)GlcNAc
# How it was run: as §1
# [7] = biological target: Fuc(a1-2)[GalNAc(a1-3)]Gal(b1-4)GlcNAc(b1-2)Man(a1-3)[Fuc(a1-2)[GalNAc(a1-3)]Gal(b1-4)GlcNAc(b1-2)Man(a1-6)]Man(b1-4)GlcNAc(b1-4)[Fuc(a1-6)]GlcNAc
# How it was run: as §1
# [8] = biological target: Fuc(a1-2)[GalNAc(a1-3)]Gal(b1-4)GlcNAc(b1-3)Gal(b1-4)GlcNAc
# How it was run: as §1
# [9] = biological target: Fuc(a1-2)[GalNAc(a1-3)]Gal(b1-4)GlcNAc(b1-3)Gal(b1-4)GlcNAc(b1-3)Gal(b1-4)GlcNAc
# How it was run: as §1
# [10] = biological target: Fuc(a1-2)[GalNAc(a1-3)]Gal(b1-4)GlcNAc(b1-3)GalNAc
# How it was run: as §1
# [11] = biological target: Fuc(a1-2)[GalNAc(a1-3)]Gal(b1-4)GlcNAc(b1-3)[Fuc(a1-2)[GalNAc(a1-3)]Gal(b1-4)GlcNAc(b1-6)]GalNAc
# How it was run: as §1
# [12] = biological target: Fuc(a1-2)[GalNAc(a1-3)]Gal(b1-4)GlcNAc(b1-6)GalNAc
# How it was run: as §1
# [13] = biological target: Fuc(a1-2)[GalNAc(a1-3)]Gal(b1-4)[Fuc(a1-3)]GlcNAc
# How it was run: as §1
# [14] = biological target: Fuc(a1-2)[GalNAc(a1-3)]Gal(b1-4)[Fuc(a1-3)]GlcNAc(b1-3)GalNAc
# How it was run: as §1
# [15] = biological target: Fuc(a1-2)[GalNAc(a1-4)]Gal(b1-4)GlcNAc
# How it was run: as §1
# [16] = biological target: Fuc(a1-2)[GalNAc(b1-3)]Gal
# How it was run: as §1
# Fuc(a1-3)GlcNAc = biological target: Fuc(a1-3)GlcNAc
# How it was run: as §1
# [17] = biological target: Fuc(a1-3)[Gal(b1-4)]Glc6S
# How it was run: as §1
# [18] = biological target: Fuc(a1-3)[Gal(b1-4)]GlcNAc
# How it was run: as §1
# [19] = biological target: Fuc(a1-3)[Gal(b1-4)]GlcNAc(b1-2)Man
# How it was run: as §1
# [20] = biological target: Fuc(a1-3)[Gal(b1-4)]GlcNAc(b1-2)Man(a1-3)[Fuc(a1-3)[Gal(b1-4)]GlcNAc(b1-2)Man(a1-6)]Man(b1-4)GlcNAc(b1-4)GlcNAc
# How it was run: as §1
# [21] = biological target: Fuc(a1-3)[Gal(b1-4)]GlcNAc(b1-2)Man(a1-3)[Fuc(a1-3)[Gal(b1-4)]GlcNAc(b1-2)Man(a1-6)]Man(b1-4)GlcNAc(b1-4)[Fuc(a1-6)]GlcNAc
# How it was run: as §1
# [22] = biological target: Fuc(a1-3)[Gal(b1-4)]GlcNAc(b1-3)Gal(b1-3)[Fuc(a1-4)]GlcNAc
# How it was run: as §1
# [23] = biological target: Fuc(a1-3)[Gal(b1-4)]GlcNAc(b1-3)Gal(b1-4)[Fuc(a1-3)]GlcNAc
# How it was run: as §1
# [24] = biological target: Fuc(a1-3)[Gal(b1-4)]GlcNAc(b1-3)Gal(b1-4)[Fuc(a1-3)]GlcNAc(b1-3)Gal(b1-4)[Fuc(a1-3)]GlcNAc
# How it was run: as §1
# [25] = biological target: Fuc(a1-3)[Gal(b1-4)]GlcNAc(b1-3)GalNAc
# How it was run: as §1
# [26] = biological target: Fuc(a1-3)[Gal(b1-4)]GlcNAc(b1-6)GalNAc
# How it was run: as §1
# [27] = biological target: Fuc(a1-3)[Gal(b1-4)]GlcNAc(b1-6)[Gal(b1-3)GlcNAc(b1-3)]Gal(b1-4)Glc
# How it was run: as §1
# [28] = biological target: Fuc(a1-3)[Gal(b1-4)]GlcNAc6S
# How it was run: as §1
# [29] = biological target: Fuc(a1-3)[Gal3S(b1-4)]Glc
# How it was run: as §1
# [30] = biological target: Fuc(a1-3)[Gal3S(b1-4)]GlcNAc
# How it was run: as §1
# [31] = biological target: Fuc(a1-3)[Gal3S(b1-4)]GlcNAc6S
# How it was run: as §1
# [32] = biological target: Fuc(a1-3)[GalNAc(b1-4)]GlcNAc
# How it was run: as §1
# [33] = biological target: Fuc(a1-3)[GalNAc(b1-4)]GlcNAc6S
# How it was run: as §1
# Fuc(a1-4)GlcNAc = biological target: Fuc(a1-4)GlcNAc
# How it was run: as §1
# Fuc(b1-3)GlcNAc = biological target: Fuc(b1-3)GlcNAc
# How it was run: as §1
# Gal(a1-2)Gal = biological target: Gal(a1-2)Gal
# How it was run: as §1
binder,measurement,setting,value
B1,glycan array binding signal (z-score),[1],-0.236
same,glycan array binding signal (z-score),[2],-0.531
same,glycan array binding signal (z-score),[3],-0.678
same,glycan array binding signal (z-score),[4],0.009
same,glycan array binding signal (z-score),[5],0.185
same,glycan array binding signal (z-score),[6],-0.269
same,glycan array binding signal (z-score),[7],0.185
same,glycan array binding signal (z-score),[8],-0.377
same,glycan array binding signal (z-score),[9],-0.624
same,glycan array binding signal (z-score),[10],-0.526
same,glycan array binding signal (z-score),[11],0.347
same,glycan array binding signal (z-score),[12],1.77
same,glycan array binding signal (z-score),[13],-0.69
same,glycan array binding signal (z-score),[14],-1.09
same,glycan array binding signal (z-score),[15],-0.648
same,glycan array binding signal (z-score),[16],0.085
same,glycan array binding signal (z-score),Fuc(a1-3)GlcNAc,-0.555
same,glycan array binding signal (z-score),[17],0.953
same,glycan array binding signal (z-score),[18],-0.306
same,glycan array binding signal (z-score),[19],0.032
same,glycan array binding signal (z-score),[20],0.281
same,glycan array binding signal (z-score),[21],-0.205
same,glycan array binding signal (z-score),[22],-0.81
same,glycan array binding signal (z-score),[23],-0.072
same,glycan array binding signal (z-score),[24],-0.249
same,glycan array binding signal (z-score),[25],0.004
same,glycan array binding signal (z-score),[26],-0.521
same,glycan array binding signal (z-score),[27],-0.745
same,glycan array binding signal (z-score),[28],-0.341
same,glycan array binding signal (z-score),[29],0.128
same,glycan array binding signal (z-score),[30],0.264
same,glycan array binding signal (z-score),[31],1.17
same,glycan array binding signal (z-score),[32],-0.176
same,glycan array binding signal (z-score),[33],-0.44
same,glycan array binding signal (z-score),Fuc(a1-4)GlcNAc,0.112
same,glycan array binding signal (z-score),Fuc(b1-3)GlcNAc,-0.276
same,glycan array binding signal (z-score),Gal(a1-2)Gal,1.55

# Part of the list above in another layout:
binder	measurement	setting	value
B1	glycan array binding signal (z-score)	[11]	0.347
same	glycan array binding signal (z-score)	[12]	1.77
